Assay results as given in the supplement of paper PMC11546906.
Structures can show the parent of a compound that is named as a salt. This is one part of the list. This data set is noisy: repeats of one test often differ as much as different tests do.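 Screen of FDA-approved drugs, each combined with colistin at one-eighth of its MIC, against a multidrug-resistant mcr-1-positive clinical E. coli isolate; growth read as OD600 after 24 h. Bacteria without drug were the growth control and plain broth the blank. A combination counted as active when OD600 fell below 0.2.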

What follows are compounds tested on Escherichia coli 42 (mcr-1-positive clinical isolate) (assay: OD600 after 24 h growth with compound plus colistin (absorbance units (OD600)); higher = more bacterial growth (less inhibition)). Conditions: first compound 25 µM; colistin concentration 0.5 ug/mL; incubation time 24 h; 37 °C.
For `CCOC(=O)C(C)(C)Oc1ccc(Cl)cc1` [Clofibrate] + CCC(C)CCCC(=O)N[C@@H](CCN)C(=O)N[C@H](C(=O)N[C@@H](CCN)C(=O)N[C@H]1CCNC(=O)[C@H]([C@@H](C)O)NC(=O)[C@H](CCN)NC(=O)[C@H](CCN)NC(=O)[C@H](CC(C)C)NC(=O)[C@@H](CC(C)C)NC(=O)[C@H](CCN)NC1=O)[C@@H](C)O [colistin], the OD600 was inactive: 1.06.
`O=C(O)c1cc(/N=N/c2ccc(O)c(C(=O)O)c2)ccc1O` [Olsalazine disodium] + CCC(C)CCCC(=O)N[C@@H](CCN)C(=O)N[C@H](C(=O)N[C@@H](CCN)C(=O)N[C@H]1CCNC(=O)[C@H]([C@@H](C)O)NC(=O)[C@H](CCN)NC(=O)[C@H](CCN)NC(=O)[C@H](CC(C)C)NC(=O)[C@@H](CC(C)C)NC(=O)[C@H](CCN)NC1=O)[C@@H](C)O [colistin] was tested, and the OD600 was inactive: 1.07.
With `CCCCCOC(=O)Nc1nc(=O)n([C@@H]2O[C@H](C)[C@@H](O)[C@H]2O)cc1F` [Capecitabine] + CCC(C)CCCC(=O)N[C@@H](CCN)C(=O)N[C@H](C(=O)N[C@@H](CCN)C(=O)N[C@H]1CCNC(=O)[C@H]([C@@H](C)O)NC(=O)[C@H](CCN)NC(=O)[C@H](CCN)NC(=O)[C@H](CC(C)C)NC(=O)[C@@H](CC(C)C)NC(=O)[C@H](CCN)NC1=O)[C@@H](C)O [colistin] the OD600 was inactive: 0.683.
For `CC(=O)OC(C)C[N+](C)(C)C` (stereo not drawn) [Methacholine Chloride] + CCC(C)CCCC(=O)N[C@@H](CCN)C(=O)N[C@H](C(=O)N[C@@H](CCN)C(=O)N[C@H]1CCNC(=O)[C@H]([C@@H](C)O)NC(=O)[C@H](CCN)NC(=O)[C@H](CCN)NC(=O)[C@H](CC(C)C)NC(=O)[C@@H](CC(C)C)NC(=O)[C@H](CCN)NC1=O)[C@@H](C)O [colistin], the OD600 was inactive: 1.04.
For `COC(=O)[C@H](c1ccccc1Cl)N1CCc2sccc2C1` (racemic) [(±) Clopidogrel hydrogen sulfate] + CCC(C)CCCC(=O)N[C@@H](CCN)C(=O)N[C@H](C(=O)N[C@@H](CCN)C(=O)N[C@H]1CCNC(=O)[C@H]([C@@H](C)O)NC(=O)[C@H](CCN)NC(=O)[C@H](CCN)NC(=O)[C@H](CC(C)C)NC(=O)[C@@H](CC(C)C)NC(=O)[C@H](CCN)NC1=O)[C@@H](C)O [colistin], the OD600 was inactive: 1.11.
In the case of `CN(C)CCCN1c2ccccc2Sc2ccccc21` [Promazine hydrochloride] + CCC(C)CCCC(=O)N[C@@H](CCN)C(=O)N[C@H](C(=O)N[C@@H](CCN)C(=O)N[C@H]1CCNC(=O)[C@H]([C@@H](C)O)NC(=O)[C@H](CCN)NC(=O)[C@H](CCN)NC(=O)[C@H](CC(C)C)NC(=O)[C@@H](CC(C)C)NC(=O)[C@H](CCN)NC1=O)[C@@H](C)O [colistin], the OD600 is reported as inactive: 1.29.
In the case of `CCCCOc1ccc(C(=O)CCN2CCCCC2)cc1` [Dyclonine hydrochloride] + CCC(C)CCCC(=O)N[C@@H](CCN)C(=O)N[C@H](C(=O)N[C@@H](CCN)C(=O)N[C@H]1CCNC(=O)[C@H]([C@@H](C)O)NC(=O)[C@H](CCN)NC(=O)[C@H](CCN)NC(=O)[C@H](CC(C)C)NC(=O)[C@@H](CC(C)C)NC(=O)[C@H](CCN)NC1=O)[C@@H](C)O [colistin], the OD600 is reported as inactive: 1.08.
With `CC(=O)Nc1cccc(-n2c(=O)n(C3CC3)c(=O)c3c(Nc4ccc(I)cc4F)n(C)c(=O)c(C)c32)c1` [Trametinib (DMSO solvate)] + CCC(C)CCCC(=O)N[C@@H](CCN)C(=O)N[C@H](C(=O)N[C@@H](CCN)C(=O)N[C@H]1CCNC(=O)[C@H]([C@@H](C)O)NC(=O)[C@H](CCN)NC(=O)[C@H](CCN)NC(=O)[C@H](CC(C)C)NC(=O)[C@@H](CC(C)C)NC(=O)[C@H](CCN)NC1=O)[C@@H](C)O [colistin] the OD600 was inactive: 0.934.
In the case of `O=C1CCCC(=O)C1C(=O)c1ccc(C(F)(F)F)cc1[N+](=O)[O-]` [Nitisinone] + CCC(C)CCCC(=O)N[C@@H](CCN)C(=O)N[C@H](C(=O)N[C@@H](CCN)C(=O)N[C@H]1CCNC(=O)[C@H]([C@@H](C)O)NC(=O)[C@H](CCN)NC(=O)[C@H](CCN)NC(=O)[C@H](CC(C)C)NC(=O)[C@@H](CC(C)C)NC(=O)[C@H](CCN)NC1=O)[C@@H](C)O [colistin], the OD600 is reported as inactive: 0.916.
For `CN(C)CCN(Cc1ccccc1)c1ccccn1` [Tripelennamine hydrochloride] + CCC(C)CCCC(=O)N[C@@H](CCN)C(=O)N[C@H](C(=O)N[C@@H](CCN)C(=O)N[C@H]1CCNC(=O)[C@H]([C@@H](C)O)NC(=O)[C@H](CCN)NC(=O)[C@H](CCN)NC(=O)[C@H](CC(C)C)NC(=O)[C@@H](CC(C)C)NC(=O)[C@H](CCN)NC1=O)[C@@H](C)O [colistin], the OD600 was inactive: 1.14.
For `CNC1(C)C2CCC(C2)C1(C)C` (stereo not drawn) [Mecamylamine hydrochloride] + CCC(C)CCCC(=O)N[C@@H](CCN)C(=O)N[C@H](C(=O)N[C@@H](CCN)C(=O)N[C@H]1CCNC(=O)[C@H]([C@@H](C)O)NC(=O)[C@H](CCN)NC(=O)[C@H](CCN)NC(=O)[C@H](CC(C)C)NC(=O)[C@@H](CC(C)C)NC(=O)[C@H](CCN)NC1=O)[C@@H](C)O [colistin], the OD600 was inactive: 0.959.
In the case of `CS(=O)(=O)c1ccc(C2=C(c3ccccc3)C(=O)OC2)cc1` [Rofecoxib] + CCC(C)CCCC(=O)N[C@@H](CCN)C(=O)N[C@H](C(=O)N[C@@H](CCN)C(=O)N[C@H]1CCNC(=O)[C@H]([C@@H](C)O)NC(=O)[C@H](CCN)NC(=O)[C@H](CCN)NC(=O)[C@H](CC(C)C)NC(=O)[C@@H](CC(C)C)NC(=O)[C@H](CCN)NC1=O)[C@@H](C)O [colistin], the OD600 is reported as inactive: 1.05.
In the case of `COC(=O)C1=C(C)NC(C)=C(C(=O)OC)C1c1ccccc1[N+](=O)[O-]` [Nifedipine] + CCC(C)CCCC(=O)N[C@@H](CCN)C(=O)N[C@H](C(=O)N[C@@H](CCN)C(=O)N[C@H]1CCNC(=O)[C@H]([C@@H](C)O)NC(=O)[C@H](CCN)NC(=O)[C@H](CCN)NC(=O)[C@H](CC(C)C)NC(=O)[C@@H](CC(C)C)NC(=O)[C@H](CCN)NC1=O)[C@@H](C)O [colistin], the OD600 is reported as inactive: 0.971.
In the case of `OC[C@H]1OC(O)[C@H](O)[C@@H](O)[C@@H]1O` (stereo partly drawn) [D-Glucose] + CCC(C)CCCC(=O)N[C@@H](CCN)C(=O)N[C@H](C(=O)N[C@@H](CCN)C(=O)N[C@H]1CCNC(=O)[C@H]([C@@H](C)O)NC(=O)[C@H](CCN)NC(=O)[C@H](CCN)NC(=O)[C@H](CC(C)C)NC(=O)[C@@H](CC(C)C)NC(=O)[C@H](CCN)NC1=O)[C@@H](C)O [colistin], the OD600 is reported as inactive: 1.1.
With `CO/N=C(\C(=O)N[C@@H]1C(=O)N2C(C(=O)O)=C(CSc3nc(=O)c(O)nn3C)CS[C@H]12)c1csc(N)n1` [Ceftriaxone sodium hydrate] + CCC(C)CCCC(=O)N[C@@H](CCN)C(=O)N[C@H](C(=O)N[C@@H](CCN)C(=O)N[C@H]1CCNC(=O)[C@H]([C@@H](C)O)NC(=O)[C@H](CCN)NC(=O)[C@H](CCN)NC(=O)[C@H](CC(C)C)NC(=O)[C@@H](CC(C)C)NC(=O)[C@H](CCN)NC1=O)[C@@H](C)O [colistin] the OD600 was active: 0.043.
In the case of `Cc1cccc(C)c1OCC(=O)N[C@@H](Cc1ccccc1)[C@@H](O)C[C@H](Cc1ccccc1)NC(=O)[C@H](C(C)C)N1CCCNC1=O` [Lopinavir] + CCC(C)CCCC(=O)N[C@@H](CCN)C(=O)N[C@H](C(=O)N[C@@H](CCN)C(=O)N[C@H]1CCNC(=O)[C@H]([C@@H](C)O)NC(=O)[C@H](CCN)NC(=O)[C@H](CCN)NC(=O)[C@H](CC(C)C)NC(=O)[C@@H](CC(C)C)NC(=O)[C@H](CCN)NC1=O)[C@@H](C)O [colistin], the OD600 is reported as inactive: 0.733.
With `Cc1ccc(NC(=O)C2(c3ccc4c(c3)OC(F)(F)O4)CC2)nc1-c1cccc(C(=O)O)c1` [Lumacaftor] + CCC(C)CCCC(=O)N[C@@H](CCN)C(=O)N[C@H](C(=O)N[C@@H](CCN)C(=O)N[C@H]1CCNC(=O)[C@H]([C@@H](C)O)NC(=O)[C@H](CCN)NC(=O)[C@H](CCN)NC(=O)[C@H](CC(C)C)NC(=O)[C@@H](CC(C)C)NC(=O)[C@H](CCN)NC1=O)[C@@H](C)O [colistin] the OD600 was inactive: 1.
For `CC[C@H]1OC(=O)[C@H](C)[C@@H](O[C@H]2C[C@@](C)(OC)[C@@H](O)[C@H](C)O2)[C@H](C)[C@@H](O[C@@H]2O[C@H](C)C[C@H](N(C)C)[C@H]2O)[C@](C)(O)C[C@@H](C)[C@@H]2N[C@@H](COCCOC)O[C@H]([C@H]2C)[C@]1(C)O` [Dirithromycin] + CCC(C)CCCC(=O)N[C@@H](CCN)C(=O)N[C@H](C(=O)N[C@@H](CCN)C(=O)N[C@H]1CCNC(=O)[C@H]([C@@H](C)O)NC(=O)[C@H](CCN)NC(=O)[C@H](CCN)NC(=O)[C@H](CC(C)C)NC(=O)[C@@H](CC(C)C)NC(=O)[C@H](CCN)NC1=O)[C@@H](C)O [colistin], the OD600 was active: 0.036.
